The values that follow come from the supplement of paper PMC10735217.

The assay concerns HEK293A TEAD-LUC reporter. Put plainly: TEAD-luciferase reporter activity (YAP activation), robust Z score vs plate; higher = stronger YAP/TEAD activation. Particulars: 24 h. Background: In a reporter assay the amount or activity of a reporter protein is the signal.

SMILES strings stand for the structures. Structures can show the parent of a compound that is named as a salt. The list shows a part of the results. Single values are uncertain here, since repeats match poorly.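 The human kidney-derived cells carry a stably integrated construct of eight TEAD-binding elements driving luciferase, read by luminescence in a drug-repurposing library screen. A compound counts as a hit when its signal is more than five robust Z scores above the plate mean.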

As for `CC(=O)N[C@@H](CCCNC(=N)N)C(=O)N[C@H]1CSSC[C@@H](C(N)=O)NC(=O)[C@H](Cc2c[nH]c3ccccc23)NC(=O)[C@H](CCCNC(=N)N)NC(=O)[C@@H](Cc2ccccc2)NC(=O)[C@H](Cc2cnc[nH]2)NC(=O)[C@@H](C)NC1=O` [Setmelanotide], the TEAD-luciferase reporter activity is, setting by setting: (compound concentration: 200 nM) inactive: -0.877; (compound concentration: 2 uM) inactive: -0.12; (compound concentration: 10 uM) inactive: -0.466.
On to `CC(=O)NC[C@H]1CC(c2ccc(-c3ccncc3)cc2)=NO1`, for which the TEAD-luciferase reporter activity was inactive: -0.709 (compound concentration: 200 nM) and inactive: 1.02 (compound concentration: 10 uM).
For `Nc1ccc(C#Cc2cnn3c(C(F)(F)F)cc(-c4ccc(C(F)(F)F)cc4)nc23)cn1` [Decoglurant], the TEAD-luciferase reporter activity by setting is: (compound concentration: 200 nM) inactive: -0.525; (compound concentration: 2 uM) inactive: -1.05; (compound concentration: 10 uM) inactive: 1.43.
On to `Cc1cc(C)cc(-c2ccc(CN3CCCC(NC(=O)c4ccccc4Cl)C3)cc2)c1` (stereo not given), for which the TEAD-luciferase reporter activity reads like this: (compound concentration: 200 nM) inactive: -0.226; (compound concentration: 10 uM) inactive: 1.73.
With `Cc1nc2cc(NC(=O)c3ccc(Cl)cc3)ccc2n1C`, the TEAD-luciferase reporter activity reads like this: (compound concentration: 200 nM) inactive: 1.54; (compound concentration: 2 uM) inactive: -2.81; (compound concentration: 10 uM) inactive: -1.
The matching figures for `CCOc1ccc(Cc2nccc3cc(OCC)c(OCC)cc23)cc1OCC`: inactive: 0.621, inactive: -2.3 and inactive: 0.864.
Turning to `CCOc1ccc(Cc2nccc3cc(OCC)c(OCC)cc23)cc1OCC` [Ethaverine], the TEAD-luciferase reporter activity (compound concentration: 2 uM) is inactive: 2.08.
With `C=C1C[C@H](N)[C@H](C(=O)O)C1` [Icofungipen], the TEAD-luciferase reporter activity (compound concentration: 200 nM) is inactive: -1.15, the TEAD-luciferase reporter activity (compound concentration: 2 uM) was inactive: -1.16 and the TEAD-luciferase reporter activity (compound concentration: 10 uM) is inactive: 2.96.
The like results for `COC(=O)[C@H](C/C=C/c1ccc(N(C)c2ncccn2)cc1)NC(=O)c1c(F)cccc1F` were, in that order, inactive: 0.963, inactive: -0.544 and inactive: 0.888.
For the compound `O=S(=O)([O-])[O-]` [Zinc sulfate], the TEAD-luciferase reporter activity (compound concentration: 2 uM) was inactive: -0.791.
Take `O=S(=O)([O-])[O-]` [Copper(II) sulfate]: the TEAD-luciferase reporter activity runs as follows: (compound concentration: 200 nM) inactive: -1.19; (compound concentration: 10 uM) inactive: -0.81.
For `CCCc1c(OCCCS(=O)(=O)c2ccc(C(=O)CCC(=O)O)cc2)ccc(C(C)=O)c1O`, the TEAD-luciferase reporter activity reads like this: (compound concentration: 200 nM) inactive: 1.47; (compound concentration: 2 uM) inactive: -1.2; (compound concentration: 10 uM) active: 6.18.
For the compound `O=C1CCc2cc(C(=O)N3CCN(Cc4ccccc4)CC3)ccc2N1`, the TEAD-luciferase reporter activity is, setting by setting: (compound concentration: 200 nM) inactive: 0.508; (compound concentration: 2 uM) inactive: 0.385; (compound concentration: 10 uM) inactive: -1.98.
The like results for `CS(=O)(=O)NC(=O)C(c1cccc(OCc2ccc3ccccc3n2)c1)C1CCCCCC1` (stereo not given) were, in that order, inactive: 0.497, inactive: 0.343 and inactive: 0.51.
With `OC(CSc1ncnc2[nH]cnc12)CN1CCN(C(c2ccc(F)cc2)c2ccc(F)cc2)CC1` (stereo not given), the TEAD-luciferase reporter activity by setting is: (compound concentration: 200 nM) inactive: 2.34; (compound concentration: 10 uM) inactive: 4.69.
Regarding `OC(CSc1ncnc2[nH]cnc12)CN1CCN(C(c2ccc(F)cc2)c2ccc(F)cc2)CC1` (stereo not given) [carsatrin], where the note is “compound concentration: 2 uM”, the TEAD-luciferase reporter activity was inactive: 4.17.
In the case of `CCCN1CCCC[C@H]1C(=O)Nc1c(C)cccc1C` [Ropivacaine hydrochloride], the TEAD-luciferase reporter activity was inactive: -0.71 (compound concentration: 200 nM) and inactive: -0.645 (compound concentration: 10 uM).
Take `COc1ccc(C(=O)Nc2c(Cl)cncc2Cl)c2cccnc12`: the TEAD-luciferase reporter activity reads like this: (compound concentration: 200 nM) inactive: -0.821; (compound concentration: 2 uM) inactive: 0.311; (compound concentration: 10 uM) inactive: 0.229.
The like results for `CSCC[C@H](NC(=O)c1ccc(CNCc2c[nH]cn2)cc1-c1ccccc1C)C(=O)O` were, in that order, inactive: -0.537, inactive: 1.23 and inactive: 0.434.
The like results for `Cc1c(Cc2ccc(OC(C)C)cc2)c(O[C@@H]2O[C@H](CO)[C@@H](O)[C@H](O)[C@H]2O)nn1C(C)C` [Remogliflozin] were, in that order, inactive: -1.69, inactive: 2.13 and inactive: -0.184.
The like results for `Cc1ccc(-n2ccnc2)cc1C(O)c1c(C)cc(C(=O)O)cc1C` (stereo not given) were, in that order, inactive: 0.79, inactive: -0.595 and inactive: -1.05.
Regarding `CC(C)(Cc1ccc(Oc2ccc(C(N)=O)cn2)cc1)NC[C@H](O)COc1cccc2[nH]c3ccccc3c12`, the TEAD-luciferase reporter activity is inactive: 1.08 (compound concentration: 200 nM), inactive: -1.2 (compound concentration: 2 uM) and inactive: 0.841 (compound concentration: 10 uM).
Consider `Clc1ccc(Sc2cc(Cl)c(Cl)cc2Cl)cc1` [Tetrasul], for which the TEAD-luciferase reporter activity (compound concentration: 200 nM) is inactive: -1.18, the TEAD-luciferase reporter activity (compound concentration: 2 uM) was inactive: -0.711 and the TEAD-luciferase reporter activity (compound concentration: 10 uM) is inactive: -1.12.
Consider `COc1ccc2c(C(=S)N(C)CC(=O)O)cccc2c1C(F)(F)F` [tolrestat], for which the TEAD-luciferase reporter activity is inactive: -1.36 (compound concentration: 200 nM), inactive: -1.04 (compound concentration: 2 uM) and inactive: -1.31 (compound concentration: 10 uM).
The matching figures for `CCOc1ccccc1C(=O)O` [2-ethoxybenzoic acid]: inactive: 1.27, inactive: 0.259 and inactive: -0.511.
The like results for `CCC(NC(C)C)C(O)c1ccc(O)c(O)c1` (stereo not given) were, in that order, inactive: 0.631, inactive: 0.832 and inactive: -0.392.
The like results for `COc1cc(Cc2cnc(N)nc2N)cc(OC)c1SC` were, in that order, inactive: 0.192, inactive: -0.802 and inactive: 1.4.
